Data reported in paper PMC4231765.
Positions count from the first letter of the chain named. Names and notes keep the numbering of the source. Results are given in words; binding and its absence hold for the method and conditions named. For part of these data: Binding seen in cells or lysates may run through a third protein. Some binding calls cover weakened binding; strength is not graded here. Tags and fused reporters may be left off the sequences shown. Blank lines part the entries; values can stand above or below the binder they belong to.

Columns and labels:
[1] = biological target: T1, HYL1^G147E, recombinant (MBP-G147E and GST-G147E) (Arabidopsis thaliana) (UniProt O04492); assay: pull-down; MBP-tagged protein on amylose resin, incubated with GST-tagged protein overnight at 4°C in 25 mM Tris pH 7.4, 1 mM EDTA, 0.01% NP-40, 2 M NaCl; 10 washes; immunoblot with GST antibody; both purified
T1 sequence: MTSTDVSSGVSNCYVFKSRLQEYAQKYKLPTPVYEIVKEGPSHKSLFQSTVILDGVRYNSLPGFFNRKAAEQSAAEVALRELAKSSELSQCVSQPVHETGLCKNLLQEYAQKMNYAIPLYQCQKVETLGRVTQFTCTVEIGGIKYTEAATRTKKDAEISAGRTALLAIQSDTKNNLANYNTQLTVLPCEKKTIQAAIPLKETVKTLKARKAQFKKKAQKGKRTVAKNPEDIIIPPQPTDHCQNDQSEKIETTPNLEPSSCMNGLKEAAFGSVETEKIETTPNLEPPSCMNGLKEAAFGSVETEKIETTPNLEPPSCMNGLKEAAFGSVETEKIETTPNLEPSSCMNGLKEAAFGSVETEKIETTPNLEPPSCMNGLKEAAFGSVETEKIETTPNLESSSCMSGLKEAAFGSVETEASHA

[2] = biological target: T2, HYL1^L165E, recombinant (MBP-L165E and GST-L165E) (Arabidopsis thaliana) (UniProt O04492); assay: as above
T2 sequence: T1 sequence with E147G, L165E

[3] = biological target: HYL1^R130E, BiFC fusion (Arabidopsis thaliana) (UniProt O04492); assay: split reporter; BiFC: cYFP-tagged and nYFP-tagged constructs cotransformed into Arabidopsis protoplasts, 22.5°C in darkness for 12 h, confocal microscopy
[4] = biological target: HYL1^C122R, BiFC fusion (Arabidopsis thaliana) (UniProt O04492); assay: as above
[5] = biological target: HYL1^T146E, BiFC fusion (Arabidopsis thaliana) (UniProt O04492); assay: as above
[6] = biological target: HYL1^L166E, BiFC fusion (Arabidopsis thaliana) (UniProt O04492); assay: as above
[7] = biological target: HYL1^I158E, BiFC fusion (Arabidopsis thaliana) (UniProt O04492); assay: as above
[8] = biological target: HYL1^T146R, BiFC fusion (Arabidopsis thaliana) (UniProt O04492); assay: as above
[9] = biological target: T3, HYL1^L165E, BiFC fusion (Arabidopsis thaliana) (UniProt O04492); assay: as above
T3 sequence: T1 sequence with E147G, L165E

[10] = biological target: T4, HYL1^G147E, BiFC fusion (Arabidopsis thaliana) (UniProt O04492); assay: as above
T4 sequence: T1 sequence

[11] = biological target: T5, HYL1 K154E, BiFC fusion (Arabidopsis thaliana) (UniProt O04492); assay: split reporter; BiFC in Arabidopsis protoplasts, data not shown
T5 sequence: T1 sequence with E147G, K154E

[12] = biological target: T6, HYL1 R151E, BiFC fusion (Arabidopsis thaliana) (UniProt O04492); assay: as above
T6 sequence: T1 sequence with E147G, R151E

[13] = biological target: T7, HYL1 R162E, BiFC fusion (Arabidopsis thaliana) (UniProt O04492); assay: as above
T7 sequence: T1 sequence with E147G, R162E

[14] = biological target: T1, HYL1^G147E, recombinant (MBP-G147E and GST-G147E) (Arabidopsis thaliana); assay: pull-down; recombinant HYL1 or mutant from E. coli with DCL1 or SE tagged with 3×Flag purified from HEK293; western analysis; bait not stated; both purified
[15] = biological target: T2, HYL1^L165E, recombinant (MBP-L165E and GST-L165E) (Arabidopsis thaliana); assay: as above

binding [1]: binds weakly | binding [2]: binds weakly
B1: HYL1, full-length, recombinant (MBP-HYL1 and GST-HYL1) (protein, UniProt O04492 1-419)
chain: T1 sequence with E147G

binding [3]: binds
B2: HYL1^R130E, BiFC fusion (protein, UniProt O04492 1-419)
chain: T1 sequence with R130E, E147G

binding [4]: binds
B3: HYL1^C122R, BiFC fusion (protein, UniProt O04492 1-419)
chain: T1 sequence with C122R, E147G

binding [5]: binds
B4: HYL1^T146E, BiFC fusion (protein, UniProt O04492 1-419)
chain: T1 sequence with T146E, E147G

binding [6]: binds
B5: HYL1^L166E, BiFC fusion (protein, UniProt O04492 1-419)
chain: T1 sequence with E147G, L166E

binding [7]: binds
B6: HYL1^I158E, BiFC fusion (protein, UniProt O04492 1-419)
chain: T1 sequence with E147G, I158E

binding [8]: binds
B7: HYL1^T146R, BiFC fusion (protein, UniProt O04492 1-419)
chain: T1 sequence with T146R, E147G

binding [9]: binds | binding [10]: binds | binding [11]: binds | binding [12]: binds | binding [13]: binds
B8: SE, BiFC fusion (protein, UniProt Q9ZVD0 1-720)
chain: MADVNLPPSDSVDNRLPEKSTSSSPPPPPPSSSLPQQEQEQDQQQLPLRRERDSRERRDERDIERPPPNRRERDRSPLPPPRRDYKRRPSLSPPPPYRDRRHSPPQRRSPPQKRYRRDDNGYDGRRGSPRGGYGPPDRRFGYDHGGGYDREMGGRPGYGDERPHGRFMGRYQDWEGGRGGYGDASNSGNPQRDGLMSYKQFIQELEDDILPSEAERRYQEYKSEYITTQKRAFFNTHKEEDWLKNKYHPTNLLSVIERRNDLAQKVAKDFLLDLQSGTLDLGPAVTALNKSGRTSEPNSEDEAAGVGKRKRHGMGGAKENELLSAAPKAPSFTSDPKRILTDVEQTQALVRKLDSEKKIEENVLQGSETEKSGREKLHSGSTGPVVIIRGLTSVKGLEGVELLDTLVTYLWRVHGLDYYGKVETNEAKGLRHVRAEGKVSDAKGDENESKFDSHWQERLKGQDPLEVMAAKEKIDAAATEALDPHVRKIRDEKYGWKYGCGAKGCTKLFHAAEFVYKHLKLKHTELVTELTTKVREELYFQNYMNDPNAPGGQPATQQSGPRDRPIRRKPSMENRLRDDRGGRRERDGRANGNDRNDRSEDQQRGDNDGGNPGEVGYDAFGGQGGVHVPPFLSDINPPPMLMPVPGAGPLGPFVPAPPEVAMQMFRDPSGPNPPFEGSGRGGPAPFLLSPAFRQDPRRLRSYQDLDAPEEEVTVIDYRSL

binding [14]: binds | binding [15]: binds
B9: SE tagged with 3×Flag, recombinant (protein, UniProt Q9ZVD0 1-720)
chain: B8 chain
